Measurements from PubChem BioAssay AID1508600 (Functional Genomics Laboratory (NCATS/FGL), 2020).
The whole screen tested about 53,000 sequences, of which about 3,700 (7%) were called active.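 Rule for the calls: active = gene knockdowns whose robust z-score for IL-1 alpha signal is at least 2 or at most -2, so actives lie on both sides; inactive = the rest.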 Some of the results follow.

experiment: Components of the Cytosolic LPS Sensing Pathway: Gene Identification via Genome-wide siRNA Screen; conditions: RAW264.7 macrophages, IL-1a HTRF, actives lie on both sides, screened at 100 nM (by protocol), cells primed 5 h with Pam3CSK4 first;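 note: robust z of the log signal after scaling to non-targeting control siRNA wells of the plate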
Procedure, shortened: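 Three distinct siRNAs per gene were tested singly at 100 nM in RAW264.7 macrophages. Following Pam3CSK4 priming and 24 hour LipidA transfection, IL-1a secretion was read by HTRF.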

Sequence	z-score
GGGACAUGAGUAACUGAUGTT against Dhx8	inactive: -0.908
GGAGCUUGAAAUUGUCAUUTT against Magoh	active: -3.51
GGAUCUCGAGCUGACAGAATT against Arhgap33os	inactive: 1.31
GGACUCUUCUGAACUCUACTT against Ifna13	inactive: 0.0465
GGAGUCCAAAGAGAAGUUCTT against Hdgfl1	inactive: 0.816
GGUAGUGUGAAAAUCCUGGTT against Bst1	inactive: -1.51
CCACUCAUUGUUCAUGGAATT against Olfr1490	inactive: 0.798
GGACAUGUUCAACUCCUUCTT against Ppp4r1	inactive: -0.311
CCAAAACUUGGGCAUGUGCTT against Olfr94	inactive: 0.0027
GGGCUUUCACACAAUCCCUTT against Kcns1	inactive: -0.362
GGAGAGCCUGAGCAAGAAUTT against Tmem164	inactive: -1.58
GGCAUACCCACAACUGAUGTT against Aars2	inactive: -1.21
CGUGUAACACACGAUUAGATT against Myot	inactive: 0.587
GGAGUGCAGUCACUAUUUGTT against Il2rg	inactive: -0.0154
GGUUCACGUAUUAAAAACATT against Cryz	inactive: -0.118
GGAUAGCAACAGAAAACGUTT against Lgi3	inactive: 1.04
GGAGUUUGGAAUAAAAAGGTT against Flt3	inactive: -0.173
GGCUGGAAUCGAUCAUUUCTT against 3830417A13Rik	inactive: 1.19
GGCGGGUUUGCUGAAUAACTT against Lrrc26	active: 2.43
GGGUUCUCAAGAAUUAAAGTT against Fbn1	inactive: -0.217
GGCUAAUUGCUACGUUCCCTT against Fam210b	inactive: 1.24
GGGCCUGAAGUAUGAAUGGTT against Lsm5	inactive: -0.42

Reprinted at random: six entries already listed
Sequence	z-score
GGCGGGUUUGCUGAAUAACTT against Lrrc26	active: 2.43
GGGCUUUCACACAAUCCCUTT against Kcns1	inactive: -0.362
CGUGUAACACACGAUUAGATT against Myot	inactive: 0.587
GGAGUGCAGUCACUAUUUGTT against Il2rg	inactive: -0.0154
CCACUCAUUGUUCAUGGAATT against Olfr1490	inactive: 0.798
GGAUCUCGAGCUGACAGAATT against Arhgap33os	inactive: 1.31

Later entries:

Sequence	z-score
GUGUUUCCUUGUUAAGAUUTT against Bloc1s4	inactive: -0.841
AUAUCAGACUGACAUAGCATT against Obox5	active: 2.47
GGUCCACACCAGACAUCAATT against Wfdc5	inactive: 0.263
GGAGCAACUGUUUUAAAAGTT against P3h2	inactive: 1.34
GCUCCUAACUUUUGUCAUATT against Ppp3r2	inactive: -0.269
GGAAACUUUAGCAUGAAUGTT against Hmgxb4	inactive: -0.335
CCCUGACGAAGCCAUACAUTT against Bcor	inactive: 1.47
GAACUCCAGGGUAUAGUCUTT against Prss3	inactive: 1.79
GGAAAGGUUUAAUCAUGAATT against Spred1	inactive: 0.602
CCAUAAGCUACCAUUUCGATT against Smcp	inactive: -0.677
CGUGUUUUAUGUCCGUCAUTT against 9330154K18Rik	inactive: -1.04
GGAAUGCACAAAUUGAAAATT against Edn1	inactive: 0.12
CCAUGAAAGUCACUUGUAUTT against Map2k6	inactive: -0.506
GGUCAACCUAAACCAGCAGTT against Csn1s2a	inactive: -0.182
CGGCCUACAACUACCCAACTT against Tekt3	inactive: 1.02
AUUUACGGGAGAUCAGCUUTT against Olfr670	inactive: -0.697
GGAGGAUGAAGAGCUAUUATT against Smarca5	inactive: -0.0196
GCCUUGGUCCUUAAAUAUATT against Slc7a2	inactive: -0.414
GCAAGCCAAGCACUUCAUUTT against Ppp1cc	inactive: 0.314
GCGUGGAGAUAAAACCAAUTT against Phka2	inactive: -1.37
GCAGGUACCCGGAUUGUCATT against Acr	inactive: 1.41
GGCCGAUGCCAAAUUGGUATT against Olfm1	inactive: 0.0323

Sequence	z-score
ACAAGAAACGUACAAGACATT against Fbxw20	inactive: 0.818
GGAGUUCCUUUUUAAACACTT against Bnip3	inactive: 0.831
CGAACUUCCAAAAAGUUCATT against A430005L14Rik	inactive: -0.498
GGUUUCUUCAUCUUGUAUUTT against Gjd4	inactive: 0.184
GGUACUACAAGCUAGCUGUTT against Scd4	inactive: -0.114
GCCGUUUUAAGAUACCGAUTT against Pde1c	inactive: 0.642
GGACACAGGACUCUACACCTT against Psg16	inactive: 0.293
GCGUGUGAAGGCAACCAUUTT against Nos3	inactive: -1.84
GCGAUAUUAACUAUGGAGATT against Gpr149	inactive: -0.601
GGACGACAACGACAUCAUGTT against Sfrp2	inactive: 0.475
GCACGGAUUAAUGUGAUGATT against Ilk	inactive: 0.406
GCCGUAUGGAGCCAUAGCUTT against Tes	inactive: -1.25
CCAUUGCACUGCGCCAACATT against 1700001O22Rik	inactive: -0.478
CCUGAACAUAAAGUUUACUTT against Catsper4	inactive: 0.209
GGUACAAACUGUUACAUUUTT against Col12a1	inactive: 1.13
GCCUAAGUUCUAGCAAAAUTT against Spata31d1d	inactive: 0.514
GGAUCUUCUGCCGUCUUGATT against Creb5	inactive: -0.201
CGACUUGGGUUUUCACGGCTT against Arsb	inactive: -1.47
GGAAAAAAAGCAAAUGAUCTT against Ndufa10	inactive: -0.738
GGUGGAGAUGGAAAUUGUCTT against Lmod2	inactive: 1.61
GGACUGGAAAAUCGGCUUCTT against Scnn1a	inactive: -0.161
GGGACUUUGAGUCUAACAATT against Pnliprp1	inactive: -0.876

As entered above:
z-score, GGCGGGUUUGCUGAAUAACTT against Lrrc26 is entered as active: 2.43
z-score, GGAAAAAAAGCAAAUGAUCTT against Ndufa10 is entered as inactive: -0.738

Additional entries:

Sequence	z-score
GCAGUUCUGGUUCUGUCUGTT against Nudcd3	inactive: -0.203
GCAAUGGAUACAGGACCUUTT against Nupr1	inactive: 0.593
GGAUUUGAAGUCACUCAUUTT against Nubp1	inactive: -0.725
GCCAACCUGAAACCAUCUATT against Ptprg	inactive: 0.0567
GGAUGAACUUAGCUACCCATT against Slc25a20	inactive: -1.46
GGUUCAAAUGUUGCAUAGUTT against Klrc2	inactive: 0.597
GGACAUGGAGAAAAAGUACTT against Styk1	inactive: 0.547
GCCAACGAAAAAUGACCUCTT against Wnt2	inactive: -0.046
GGACUCCAAGAAUUUAACATT against Fbxo22	inactive: -0.73
GAAGCUGUCCAAGUACGAGTT against Atoh7	inactive: -0.299
CCAAUCAGGUUGAAUAAGATT against Prr14	inactive: -0.528
GCCCAAAGGUCAAGGAUAUTT against Rptn	inactive: -0.036
GGGAGUCAAGCUGUUUGCUTT against Col7a1	inactive: 0.633
CGAUUCAUCUGUGUUCGUGTT against Adgrb1	inactive: 1.18
GGAUGUUGGCAGCCGAACATT against St3gal2	inactive: -0.684
CCCAGUAUUUUGGAACUAUTT against Napsa	inactive: 1.49
CCCACUGGUGUACGUGAUCTT against Bdkrb2	active: 2.21
GGGCCAUGGAAUUGUAAGATT against Mobp	inactive: -0.0128
GGGUUUUGGGAUAAAUAACTT against D030056L22Rik	inactive: -0.111
GGCAAACCUGCAAACAUCUTT against Prss52	inactive: 0.962
GGAAACUGGCAGUUUGGGUTT against Slc35a1	inactive: -0.367
GCAGCUCCAUACCAAUUCCTT against Phf8-ps	inactive: 0.238

Sequence	z-score
GGAAUUGUCCCGGAAGAGGTT against Zc3hc1	inactive: -0.62
CCAGACUCAUAAUGUUAAUTT against 9430077A04Rik	inactive: -1.13
CCUUUAAUUUCACUGUUACTT against Gabarapl2	inactive: 0.269
CGAUCAAGGAUCUUAAGAUTT against Aox4	inactive: -1.13
CCUGCCUGACACAUUGUGATT against Ntan1	inactive: -1.64
GGUUGUAAGUGUCUUAAAGTT against Pdcd6ip	inactive: 0.438
GACUGAAACACUCAAAGCCTT against Cox7b2	inactive: -0.138
GGAAUGAUGAUGUCUCAUATT against Prpf40a	inactive: -0.327
CCAAUAACAGGAUUGAGAATT against Tnfrsf8	inactive: -0.528
GCCGUUUGUACCUUGUCAGTT against 4933430I17Rik	active: -3.01
GGAACUUCUGGUAAGUUUGTT against Ints7	inactive: 0.37
GGAUCAAUGCCCGACUACATT against Phf14	inactive: 0.281
GGUGAUUGCAUACCUAUGATT against Irs4	inactive: 0.614
GGAAAAAGAGGAUGAGUGCTT against Gm4861	active: 2.01
GGAUCAAAGCUCCGGUAUATT against Farsb	inactive: -0.589
GGGCAUCUUCUGCUACUUCTT against Slc8b1	inactive: -0.935
CGUAGAUCUUUCAUUUGUCTT against Tgds	inactive: 1.12
GGAAGUGUUUCACGUGGAATT against Uhrf1	inactive: 0.542
